Measurements reported in article PMC12607517.
Results are given in words; binding and its absence hold for the method and conditions named. In cells and extracts the contact can be indirect. A yes stands for co-enrichment or nearness to the bait. Other partners may have been found. Tags and fused reporters may be left off the sequences shown.

Protein sequences, listed by entry. Tags and fused reporters are not part of them.
UniProt Q91VJ4: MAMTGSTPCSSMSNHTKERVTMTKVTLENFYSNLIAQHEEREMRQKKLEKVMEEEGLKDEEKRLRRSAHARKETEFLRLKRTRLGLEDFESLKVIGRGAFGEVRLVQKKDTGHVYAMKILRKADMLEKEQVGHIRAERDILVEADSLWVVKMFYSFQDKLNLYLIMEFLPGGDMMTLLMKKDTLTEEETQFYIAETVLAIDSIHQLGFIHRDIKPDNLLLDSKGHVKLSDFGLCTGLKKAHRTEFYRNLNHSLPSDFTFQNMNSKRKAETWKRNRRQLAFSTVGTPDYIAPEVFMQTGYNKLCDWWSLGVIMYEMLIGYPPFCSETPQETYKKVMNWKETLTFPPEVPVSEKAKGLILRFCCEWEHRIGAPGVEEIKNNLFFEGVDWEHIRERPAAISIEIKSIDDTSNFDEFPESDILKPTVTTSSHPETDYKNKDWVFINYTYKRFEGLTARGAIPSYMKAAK

Biological target: T1, FLAG-His-tagged MerTK (mouse) (UniProt Q60805)
T1 sequence: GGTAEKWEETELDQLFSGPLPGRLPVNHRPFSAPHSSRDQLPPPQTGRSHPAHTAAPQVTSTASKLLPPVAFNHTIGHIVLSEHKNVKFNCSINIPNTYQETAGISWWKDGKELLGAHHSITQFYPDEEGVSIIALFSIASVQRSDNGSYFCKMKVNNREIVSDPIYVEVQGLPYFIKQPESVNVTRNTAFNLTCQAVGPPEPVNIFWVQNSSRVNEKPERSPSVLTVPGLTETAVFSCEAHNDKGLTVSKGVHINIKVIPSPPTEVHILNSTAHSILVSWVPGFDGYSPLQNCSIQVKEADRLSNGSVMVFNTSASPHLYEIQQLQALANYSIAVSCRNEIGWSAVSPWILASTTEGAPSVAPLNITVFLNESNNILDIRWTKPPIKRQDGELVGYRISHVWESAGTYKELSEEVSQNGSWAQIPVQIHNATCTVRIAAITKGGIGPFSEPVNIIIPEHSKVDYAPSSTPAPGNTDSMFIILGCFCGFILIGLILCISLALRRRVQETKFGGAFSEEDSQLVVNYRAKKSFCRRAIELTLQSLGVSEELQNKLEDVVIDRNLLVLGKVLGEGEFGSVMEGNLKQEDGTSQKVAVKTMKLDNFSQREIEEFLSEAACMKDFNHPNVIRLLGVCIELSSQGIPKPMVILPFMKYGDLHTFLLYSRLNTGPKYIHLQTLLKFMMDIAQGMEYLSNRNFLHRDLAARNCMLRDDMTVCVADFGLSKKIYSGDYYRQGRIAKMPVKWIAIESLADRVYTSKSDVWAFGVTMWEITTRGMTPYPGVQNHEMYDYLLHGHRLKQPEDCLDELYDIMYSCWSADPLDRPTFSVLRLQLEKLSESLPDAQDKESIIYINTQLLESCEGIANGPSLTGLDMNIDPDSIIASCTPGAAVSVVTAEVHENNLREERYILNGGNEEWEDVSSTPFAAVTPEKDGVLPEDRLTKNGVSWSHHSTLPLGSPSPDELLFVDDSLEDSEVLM
Assay: affinity purification with mass spectrometry; FLAG-His-tagged MerTK expressed with Ras (G12V) in NIH-3T3; RIPA lysate; anti-FLAG M2 gel, FLAG peptide elution, then Ni-NTA agarose, imidazole elution; SDS-PAGE, tryptic digestion, MALDI-TOF, Mascot

binding: binds
Substance: STK38 (endogenous, NIH-3T3) (from UniProt Q91VJ4 1-465) (enzyme)
